Laboratory results from the supplement of paper PMC12823440, “Inhibitors supercharge kinase turnover through native proteolytic circuits” (Nature, 2025).
Counter-ions that a name gives are not always drawn. The list shows a part of the results. The calls rarely recur for the same compound in another form.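 Kinases were expressed as nanoluciferase fusions in K562 cells and luminescence was read every 4 h between 2 and 18 h as percent of control, DMSO set to 100% and a positive control to 0%. A time point counts as decreased when the signal drops significantly (2 sigma). The hit call is the authors' own, does not follow from the count of time points alone, and its rule is not shown.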

Amino acid sequences for entries named in this document (tags omitted). A change or cut given only in a name is not applied to a line headed by its entry.
UniProt Q9UM73: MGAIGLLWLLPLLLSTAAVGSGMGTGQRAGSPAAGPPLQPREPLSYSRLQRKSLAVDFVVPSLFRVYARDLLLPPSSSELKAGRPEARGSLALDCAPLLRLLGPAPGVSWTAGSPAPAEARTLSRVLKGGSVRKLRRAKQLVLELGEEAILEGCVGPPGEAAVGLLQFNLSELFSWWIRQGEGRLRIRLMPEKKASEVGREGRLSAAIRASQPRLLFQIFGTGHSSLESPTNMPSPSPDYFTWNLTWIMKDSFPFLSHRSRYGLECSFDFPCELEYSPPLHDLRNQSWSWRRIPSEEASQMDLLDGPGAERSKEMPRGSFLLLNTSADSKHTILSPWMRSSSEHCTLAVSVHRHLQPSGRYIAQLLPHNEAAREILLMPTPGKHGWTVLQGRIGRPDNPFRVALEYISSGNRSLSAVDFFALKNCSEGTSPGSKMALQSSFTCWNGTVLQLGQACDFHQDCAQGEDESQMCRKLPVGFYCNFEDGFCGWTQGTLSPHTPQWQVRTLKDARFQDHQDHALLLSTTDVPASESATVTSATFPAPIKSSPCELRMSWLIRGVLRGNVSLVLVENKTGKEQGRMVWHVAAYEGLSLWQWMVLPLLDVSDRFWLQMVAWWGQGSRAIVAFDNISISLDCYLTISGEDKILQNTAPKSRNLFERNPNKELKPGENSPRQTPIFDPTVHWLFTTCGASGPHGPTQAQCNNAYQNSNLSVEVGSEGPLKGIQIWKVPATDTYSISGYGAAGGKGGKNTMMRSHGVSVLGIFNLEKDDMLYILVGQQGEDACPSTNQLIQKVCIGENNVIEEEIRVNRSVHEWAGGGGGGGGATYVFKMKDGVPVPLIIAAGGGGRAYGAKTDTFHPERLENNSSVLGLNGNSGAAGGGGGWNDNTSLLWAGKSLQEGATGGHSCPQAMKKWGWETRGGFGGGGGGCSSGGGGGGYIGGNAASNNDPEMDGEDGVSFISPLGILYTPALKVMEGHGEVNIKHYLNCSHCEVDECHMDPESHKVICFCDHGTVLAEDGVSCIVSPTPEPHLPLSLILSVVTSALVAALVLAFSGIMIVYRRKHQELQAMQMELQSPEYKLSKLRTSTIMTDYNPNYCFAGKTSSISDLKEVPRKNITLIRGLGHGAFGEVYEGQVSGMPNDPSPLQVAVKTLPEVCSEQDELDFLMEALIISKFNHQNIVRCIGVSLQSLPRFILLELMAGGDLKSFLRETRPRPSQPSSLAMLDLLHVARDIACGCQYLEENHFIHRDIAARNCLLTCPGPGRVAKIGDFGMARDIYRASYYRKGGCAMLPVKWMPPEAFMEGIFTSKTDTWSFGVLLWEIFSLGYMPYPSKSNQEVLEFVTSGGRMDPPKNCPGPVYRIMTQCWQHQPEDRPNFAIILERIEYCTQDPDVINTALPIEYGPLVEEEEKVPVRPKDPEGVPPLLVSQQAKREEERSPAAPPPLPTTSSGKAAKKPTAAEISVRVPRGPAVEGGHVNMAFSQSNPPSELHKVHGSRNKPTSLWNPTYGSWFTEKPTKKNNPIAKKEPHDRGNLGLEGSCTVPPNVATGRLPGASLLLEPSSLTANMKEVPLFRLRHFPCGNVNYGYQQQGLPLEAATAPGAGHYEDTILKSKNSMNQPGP
UniProt P10398: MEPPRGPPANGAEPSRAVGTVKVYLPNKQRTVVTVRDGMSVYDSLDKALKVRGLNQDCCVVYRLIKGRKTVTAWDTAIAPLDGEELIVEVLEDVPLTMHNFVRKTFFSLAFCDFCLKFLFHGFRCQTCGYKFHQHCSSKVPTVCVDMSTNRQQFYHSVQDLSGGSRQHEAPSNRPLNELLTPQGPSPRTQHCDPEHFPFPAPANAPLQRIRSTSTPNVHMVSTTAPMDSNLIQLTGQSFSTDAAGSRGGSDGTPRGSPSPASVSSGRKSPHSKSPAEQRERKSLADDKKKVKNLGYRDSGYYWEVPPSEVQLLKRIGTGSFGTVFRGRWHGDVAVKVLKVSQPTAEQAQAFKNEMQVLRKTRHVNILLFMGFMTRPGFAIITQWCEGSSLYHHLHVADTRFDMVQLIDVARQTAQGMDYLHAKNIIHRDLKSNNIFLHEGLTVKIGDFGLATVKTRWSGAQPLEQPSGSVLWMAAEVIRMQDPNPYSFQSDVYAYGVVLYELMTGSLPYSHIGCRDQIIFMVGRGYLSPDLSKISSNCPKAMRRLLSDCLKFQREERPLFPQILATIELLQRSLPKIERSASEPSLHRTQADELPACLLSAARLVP
UniProt O14965: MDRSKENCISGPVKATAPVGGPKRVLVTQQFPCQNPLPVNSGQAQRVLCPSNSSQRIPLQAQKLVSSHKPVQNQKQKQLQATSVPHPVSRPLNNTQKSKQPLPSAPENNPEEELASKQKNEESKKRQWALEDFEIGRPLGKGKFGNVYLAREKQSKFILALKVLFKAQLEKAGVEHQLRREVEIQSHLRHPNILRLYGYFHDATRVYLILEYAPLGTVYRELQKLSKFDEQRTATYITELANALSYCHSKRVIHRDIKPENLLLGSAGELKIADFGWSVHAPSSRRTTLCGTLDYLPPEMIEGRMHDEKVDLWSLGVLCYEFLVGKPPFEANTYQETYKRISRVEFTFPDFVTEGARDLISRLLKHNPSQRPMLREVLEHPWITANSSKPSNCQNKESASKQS
UniProt Q96GD4, whole entry: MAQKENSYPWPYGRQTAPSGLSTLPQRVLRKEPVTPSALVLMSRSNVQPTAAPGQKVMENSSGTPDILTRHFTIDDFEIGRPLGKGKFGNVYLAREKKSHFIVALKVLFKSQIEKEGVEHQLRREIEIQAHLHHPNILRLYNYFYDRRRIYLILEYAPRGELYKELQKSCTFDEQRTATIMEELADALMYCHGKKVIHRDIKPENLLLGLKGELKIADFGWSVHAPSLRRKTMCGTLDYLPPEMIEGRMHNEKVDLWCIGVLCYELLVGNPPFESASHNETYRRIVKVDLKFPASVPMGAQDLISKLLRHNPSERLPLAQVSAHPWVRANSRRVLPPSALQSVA
UniProt Q9UQB9: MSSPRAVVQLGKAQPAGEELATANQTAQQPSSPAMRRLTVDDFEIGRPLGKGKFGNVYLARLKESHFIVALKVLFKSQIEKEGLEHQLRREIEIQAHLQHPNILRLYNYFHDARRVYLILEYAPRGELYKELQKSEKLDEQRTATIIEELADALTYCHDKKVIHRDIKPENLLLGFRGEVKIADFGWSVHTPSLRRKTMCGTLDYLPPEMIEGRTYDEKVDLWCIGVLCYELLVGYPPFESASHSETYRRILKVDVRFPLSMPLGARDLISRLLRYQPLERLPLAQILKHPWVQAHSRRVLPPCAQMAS
UniProt P51451: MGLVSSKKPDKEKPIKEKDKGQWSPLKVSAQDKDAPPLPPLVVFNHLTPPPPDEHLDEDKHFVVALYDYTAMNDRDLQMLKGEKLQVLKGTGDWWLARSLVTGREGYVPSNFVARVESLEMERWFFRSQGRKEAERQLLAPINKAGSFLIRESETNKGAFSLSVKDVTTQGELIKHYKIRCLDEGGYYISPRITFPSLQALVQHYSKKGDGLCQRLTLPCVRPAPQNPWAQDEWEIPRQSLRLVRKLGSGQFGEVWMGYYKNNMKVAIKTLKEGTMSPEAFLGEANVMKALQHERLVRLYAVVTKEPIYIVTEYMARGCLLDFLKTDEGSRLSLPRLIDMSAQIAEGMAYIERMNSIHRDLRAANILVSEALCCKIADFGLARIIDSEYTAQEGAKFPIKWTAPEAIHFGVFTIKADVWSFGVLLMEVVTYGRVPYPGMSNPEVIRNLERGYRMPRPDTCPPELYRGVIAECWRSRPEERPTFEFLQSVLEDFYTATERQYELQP
UniProt P51813: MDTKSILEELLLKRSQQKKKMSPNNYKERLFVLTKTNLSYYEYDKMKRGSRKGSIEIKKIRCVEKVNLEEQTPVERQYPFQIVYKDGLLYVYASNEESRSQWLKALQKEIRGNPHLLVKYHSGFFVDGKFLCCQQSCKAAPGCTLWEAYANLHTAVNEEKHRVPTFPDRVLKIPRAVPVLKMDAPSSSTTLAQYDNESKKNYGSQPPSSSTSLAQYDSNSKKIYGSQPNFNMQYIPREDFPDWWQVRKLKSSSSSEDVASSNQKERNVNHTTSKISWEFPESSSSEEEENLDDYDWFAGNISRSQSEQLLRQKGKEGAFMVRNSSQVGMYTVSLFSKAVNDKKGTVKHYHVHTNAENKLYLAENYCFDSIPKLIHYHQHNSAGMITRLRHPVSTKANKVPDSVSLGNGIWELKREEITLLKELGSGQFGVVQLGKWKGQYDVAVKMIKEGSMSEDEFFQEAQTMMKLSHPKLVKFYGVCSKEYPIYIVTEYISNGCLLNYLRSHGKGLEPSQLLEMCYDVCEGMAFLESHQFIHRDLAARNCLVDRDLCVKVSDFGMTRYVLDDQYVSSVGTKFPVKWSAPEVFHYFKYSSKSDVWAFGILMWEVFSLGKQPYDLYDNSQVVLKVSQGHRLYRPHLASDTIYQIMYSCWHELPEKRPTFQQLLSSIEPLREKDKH
UniProt P15056, whole entry, looked up: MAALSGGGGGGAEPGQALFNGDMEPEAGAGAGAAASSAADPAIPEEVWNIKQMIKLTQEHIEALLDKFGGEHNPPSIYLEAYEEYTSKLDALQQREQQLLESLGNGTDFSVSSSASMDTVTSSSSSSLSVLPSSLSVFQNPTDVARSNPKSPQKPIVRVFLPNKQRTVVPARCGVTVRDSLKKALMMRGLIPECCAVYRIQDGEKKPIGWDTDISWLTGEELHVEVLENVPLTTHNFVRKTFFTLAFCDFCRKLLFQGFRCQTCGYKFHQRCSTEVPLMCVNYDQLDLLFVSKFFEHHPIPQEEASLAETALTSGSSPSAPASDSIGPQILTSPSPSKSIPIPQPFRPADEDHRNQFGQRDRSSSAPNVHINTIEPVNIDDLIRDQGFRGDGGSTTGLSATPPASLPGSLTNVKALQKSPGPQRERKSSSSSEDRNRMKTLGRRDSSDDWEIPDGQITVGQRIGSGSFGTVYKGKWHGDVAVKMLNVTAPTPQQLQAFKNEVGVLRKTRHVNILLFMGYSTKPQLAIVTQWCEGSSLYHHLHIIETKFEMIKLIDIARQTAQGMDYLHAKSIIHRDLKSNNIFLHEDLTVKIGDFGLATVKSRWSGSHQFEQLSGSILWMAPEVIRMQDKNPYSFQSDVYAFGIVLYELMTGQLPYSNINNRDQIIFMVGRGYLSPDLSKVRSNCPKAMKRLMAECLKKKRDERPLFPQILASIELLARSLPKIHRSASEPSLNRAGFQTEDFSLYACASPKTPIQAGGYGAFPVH
UniProt Q06187: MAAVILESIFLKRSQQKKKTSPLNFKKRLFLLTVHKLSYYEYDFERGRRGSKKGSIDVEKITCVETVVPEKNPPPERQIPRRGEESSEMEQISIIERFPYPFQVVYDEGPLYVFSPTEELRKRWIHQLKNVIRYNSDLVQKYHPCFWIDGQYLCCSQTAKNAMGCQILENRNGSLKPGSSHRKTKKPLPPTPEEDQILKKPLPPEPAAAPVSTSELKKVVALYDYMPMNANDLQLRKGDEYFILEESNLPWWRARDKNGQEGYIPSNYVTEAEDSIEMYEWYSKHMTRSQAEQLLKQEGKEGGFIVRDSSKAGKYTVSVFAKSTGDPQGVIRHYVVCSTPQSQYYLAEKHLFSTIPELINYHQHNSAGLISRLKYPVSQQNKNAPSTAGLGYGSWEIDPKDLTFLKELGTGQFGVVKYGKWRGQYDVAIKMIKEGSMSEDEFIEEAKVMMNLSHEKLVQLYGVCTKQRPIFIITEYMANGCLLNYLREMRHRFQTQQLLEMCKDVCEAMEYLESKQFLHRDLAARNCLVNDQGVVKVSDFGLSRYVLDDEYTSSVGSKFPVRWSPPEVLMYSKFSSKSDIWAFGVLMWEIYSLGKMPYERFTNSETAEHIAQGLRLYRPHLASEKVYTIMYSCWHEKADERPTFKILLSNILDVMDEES

Experiments:
Assay in all cases: number of time points (of 5) at which kinase-Nluc abundance scored as decreased, DMSO-normalised (count); higher = more persistent destabilization
Details in all cases: K562; 2-18 h
ALK = ALK (UniProt Q9UM73)
ARAF = ARAF (UniProt P10398)
AURKA = AURKA (UniProt O14965)
AURKB = AURKB (UniProt Q96GD4)
AURKC = AURKC (UniProt Q9UQB9)
BLK = BLK (UniProt P51451)
BMX = BMX (UniProt P51813)
BRAF = BRAF (UniProt P15056)
BRAF_V600E = system: BRAF_V600E
BTK = BTK (UniProt Q06187)

Compound	number of time points (ALK)	number of time points (ARAF)	number of time points (AURKA)	number of time points (AURKB)	number of time points (AURKC)	number of time points (BLK)	number of time points (BMX)	number of time points (BRAF)	number of time points (BRAF_V600E)	number of time points (BTK)
CC[C@@H]1C(=O)N(C)c2cnc(Nc3ccc(C(=O)N[C@H]4CC[C@H](N5CCN(CC6CC6)CC5)CC4)cc3OC)nc2N1C(C)C [Volasertib] (2.5 µM)	0	0	0	0	0	0	0	0	0	0
CC(C)c1cc(/C=C(\C#N)C(N)=O)cc(C(C)C)c1O (10 µM)	0	0	0	0	0	0	0	0	0	0
O=C(NOCCO)c1ccc2cncn2c1Nc1ccc(I)cc1F (10 µM)	0	0	1	0	0	0	0	0	1	0
O=C(Nc1ccc(Cl)c(Cl)c1)Nc1ccc2nnsc2c1 (10 µM)	0	0	0	0	0	0	0	3	0	0
N=C(N)NC(=N)NCCc1ccccc1 [Phenformin (hydrochloride)] (10 µM)	0	0	0	0	0	0	0	0	0	0
CCn1nc(C2CCN(C(=O)CCO)CC2)nc1-c1cnc(N)c(-c2nnc(C(C)(C)C)o2)n1 (10 µM)	0	0	0	0	0	0	0	0	0	0
CC(CCc1ccccn1)(CCc1ccccn1)C(=O)c1ccccc1 (10 µM)	0	0	0	0	0	0	0	0	0	0
CCOc1ccccc1C=C1C(=O)Nc2ccccc21 (10 µM)	0	0	0	0	0	0	0	0	0	0
Cn1cc(-c2ccc3nnc(C(F)(F)c4ccc5ncccc5c4)n3n2)cn1 (10 µM)	0	0	0	0	0	0	0	0	0	0
COc1cnccc1Nc1nc(-c2nn(Cc3c(F)cc(OCCO)cc3F)c3ccccc23)ncc1OC (10 µM)	0	0	0	0	0	0	0	0	0	0
CC1(COc2ccc3c(c2)ncn3-c2ccc3cccc(N4CCC(N)CC4)c3n2)COC1 [Crenolanib] (2.5 µM)	0	0	0	0	0	0	1	0	2	0
Cc1ccc(-c2nn(C(C)(C)CNC(=O)c3ccncc3)c3ncnc(N)c23)cc1 (2.5 µM)	0	0	0	0	0	0	0	0	0	0
CCc1c(C)sc(NC(=S)NC(=O)c2ccc(Cl)cc2)c1C(N)=O (10 µM)	0	0	0	0	0	0	0	0	0	0
O=S(=O)(c1cccc2cnccc12)N1CCNCC1 (10 µM)	0	0	0	0	0	0	0	0	0	0
CC1(N)CCN(c2cnc3c(-c4cccc(Cl)c4Cl)[nH]nc3n2)CC1 (2.5 µM)	0	0	0	0	0	1	0	0	0	0
CC(C)N(C)c1nc2cc(C(=O)O)ccc2nc1-c1ccc(F)cc1 (10 µM)	0	0	0	0	0	0	0	0	0	0
NCCCCCCNS(=O)(=O)c1cccc2c(Cl)cccc12 [W-7 (hydrochloride)] (10 µM)	0	0	0	0	0	0	0	0	0	0

At a glance, part of the list above:
Compound	number of time points (ALK)	number of time points (ARAF)	number of time points (AURKA)	number of time points (AURKB)	number of time points (AURKC)	number of time points (BLK)	number of time points (BMX)	number of time points (BRAF)	number of time points (BRAF_V600E)	number of time points (BTK)
O=C(Nc1ccc(Cl)c(Cl)c1)Nc1ccc2nnsc2c1 (10 µM)	0	0	0	0	0	0	0	3	0	0
N=C(N)NC(=N)NCCc1ccccc1 [Phenformin (hydrochloride)] (10 µM)	0	0	0	0	0	0	0	0	0	0

(further entries)

Compound	number of time points (ALK)	number of time points (ARAF)	number of time points (AURKA)	number of time points (AURKB)	number of time points (AURKC)	number of time points (BLK)	number of time points (BMX)	number of time points (BRAF)	number of time points (BRAF_V600E)	number of time points (BTK)
CC[C@H](Nc1ncnc2[nH]cnc12)c1oc2ccccc2c(=O)c1-c1cccc(F)c1 [Tenalisib] (10 µM)	0	0	0	0	0	0	0	0	0	0
O=C(Nc1ccc(Cl)cc1)C1CCCN(C(=O)c2cccc(-c3ccco3)c2)C1 (stereo not given) (2.5 µM)	0	0	0	0	0	0	0	0	0	0
O=c1ccoc2cc(O)ccc12 [7-Hydroxy-4H-chromen-4-one] (10 µM)	0	0	0	0	0	0	0	0	0	0
CCOc1c([C@H](C)n2nc(C)c3c(N)ncnc32)cc(Cl)c(F)c1[C@@H]1CNC(=O)C1 [Parsaclisib (hydrochloride)] (10 µM)	0	0	0	0	0	0	0	0	0	0
CC(=O)Nc1nc(C)c(-c2nc(N3CCCC(O)C3)no2)s1 (stereo not given) (10 µM)	0	0	0	0	0	0	0	0	0	0
COc1cc2ncnc(Nc3ccc(NC(=O)c4ccccc4)cc3)c2cc1OC [Aurora kinase inhibitor-2] (2.5 µM)	0	0	0	0	0	0	0	0	1	0
Cc1cc(C(C)Nc2ccccc2)c2nc(N3CCOCC3)cc(=O)n2c1 (stereo not given) (10 µM)	0	0	0	0	0	0	0	0	0	0
COc1ccc2c(Oc3ccc(NC(=O)c4c(C)n(CC(C)(C)O)n(-c5ccccc5)c4=O)cc3F)ccnc2c1 (2.5 µM)	0	0	0	0	0	0	0	0	2	0
N#C/C(=C\c1ccc2oc(=O)[nH]c2c1)C(=O)c1ccc(O)c(O)c1 (10 µM)	0	0	0	0	0	0	0	0	0	0
CCC(C)(C)C(=O)N(O)Cc1ccccc1 (10 µM)	0	0	0	0	0	1	0	0	0	0
COC1(C(=O)N[C@@H](C)c2ccc(-n3cc(F)cn3)nc2)CCC(c2nc(C)cc(Nc3cc(C)[nH]n3)n2)CC1 (stereo partly drawn) [trans-Pralsetinib] (2.5 µM)	0	0	0	0	0	0	0	0	0	0
O=[N+]([O-])c1ccc(Sc2cccc[n+]2[O-])c2nonc12 (2.5 µM)	0	0	0	0	0	0	0	0	0	0
COc1nc(-c2ccnc(NC(=O)C3CC3)c2)sc1C(N)=O [GSK-3β inhibitor 2] (10 µM)	0	0	0	0	0	0	3	0	0	0
COc1ccc2c(c1OC)OC1c3ccc(O)cc3OCC21 (stereo not given) [Methylnissolin] (10 µM)	0	0	0	0	0	0	0	0	2	0
C=C(F)C(=O)N1CCN(c2nc(OC[C@@H]3CCCN3C)nc3c2CCN(c2cccc4cccc(Cl)c24)C3)C[C@@H]1CC#N (2.5 µM)	0	0	0	0	0	0	0	0	0	0
CN1CC[C@H](c2c(O)cc(O)c3c(=O)cc(-c4ccc(C(F)(F)F)cc4Cl)oc23)[C@H]1CO [(2S,3R)-Voruciclib (hydrochloride)] (2.5 µM)	0	0	3	0	0	0	0	0	2	0
COC(=O)[C@@]1(C)CC[C@]2(C(=O)O)CC[C@]3(C)C(=CC[C@@H]4[C@@]5(C)C[C@H](O)[C@H](O[C@@H]6OC[C@@H](O[C@@H]7O[C@H](CO)[C@@H](O)[C@H](O)[C@H]7O)[C@H](O)[C@H]6O)[C@@](C)(CO)[C@@H]5CC[C@]43C)[C@@H]2C1 [Esculentoside A] (10 µM)	0	0	0	0	0	0	0	0	0	0
